According to publication PMC4906249:
No constants are given. Whether binding was seen depends on the method and setting. Some binding calls cover weakened binding; strength is not graded here. Tags and fused reporters may be left off the sequences shown.

Sequences of proteins named here, by UniProt entry; tags and fusion partners are left off.
UniProt O95251: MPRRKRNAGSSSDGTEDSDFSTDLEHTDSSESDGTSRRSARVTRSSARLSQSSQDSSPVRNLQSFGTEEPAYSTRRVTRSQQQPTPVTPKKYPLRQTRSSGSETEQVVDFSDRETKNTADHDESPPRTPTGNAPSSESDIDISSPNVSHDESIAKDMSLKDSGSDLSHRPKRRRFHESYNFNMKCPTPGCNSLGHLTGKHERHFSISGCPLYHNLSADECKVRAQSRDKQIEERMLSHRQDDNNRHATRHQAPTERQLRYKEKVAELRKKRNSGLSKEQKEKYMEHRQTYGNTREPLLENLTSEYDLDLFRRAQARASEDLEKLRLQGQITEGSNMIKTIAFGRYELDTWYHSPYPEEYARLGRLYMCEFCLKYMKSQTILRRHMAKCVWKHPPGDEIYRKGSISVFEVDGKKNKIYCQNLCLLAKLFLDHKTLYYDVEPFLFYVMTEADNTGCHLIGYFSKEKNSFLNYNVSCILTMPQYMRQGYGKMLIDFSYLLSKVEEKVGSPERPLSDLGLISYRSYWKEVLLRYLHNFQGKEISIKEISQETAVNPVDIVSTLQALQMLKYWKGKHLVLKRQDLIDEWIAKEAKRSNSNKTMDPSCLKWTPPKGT

Biological target: tetR-EYFP-KAT7 (human) (UniProt O95251)
Test: fluorescence microscopy-based interaction-trap assay; tetR-EYFP fusion tethered to the ectopic alphoid^tetO DNA integration site in HeLa-Int-03 cells; recruitment of Halo-tag-fused prey seen with Halo-TMR ligand

B1: Halo-tag fused M18BP1 C-terminal domain (domain or fragment, UniProt Q6P0N0 851-1132)
chain: EFPITEAVGSDKTNRHPLECLPGLIQDKEWNEKELQKLHCAFASLPKHKPGFWSEVAAAVGSRSPEECQRKYMENPRGKGSQKHVTKKKPANSKGQNGKRGDADQKQTIKITAKVGTLKRKQQMREFLEQLPKDDHDDFFSTTPLQHQRILLPSFQDSEDDDDILPNMDKNPTTPSSVIFPLVKTPQCQHVSPGMLGSINRNDCDKYVFRMQKYHKSNGGIVWGNIKKKLVETDFSTPTPRRKTPFNTDLGENSGIGKLFTNAVESLDEEEKDYYFSNSDSA
binding: binds
